PubChem BioAssay AID1259424, University of Nebraska Medical Center | 2018
Aim: 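Rank knockdowns across the genome by resemblance to the KSR1 depletion profile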 (primary screen). Cells: human HCT116 colon cancer cells. Knock-down reagent: siRNA pool against human genes, 50 nM. Detection: 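Log2 levels of six mRNAs (branched-DNA multiplex), adjusted by two reference genes and the non-targeting median, then scored against the average KSR1 knockdown pattern as Pearson r and euclidean distance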. Reading the numbers: mean correlation with KSR1 profile: higher = expression change more like KSR1 knockdown.
In all, the deposit lists about 14,000 reagents; below is a part drawn at random. 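Higher correlation or smaller distance means closer resemblance to KSR1 loss; control wells, including KSR1 knockdowns, recur on many plates.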 The numbers tell different reagents against one gene apart. Not all columns of the deposit are shown. Not given: the time to read-out.

mean correlation with KSR1 profile | gene | pool no.
-0.255 | ADAM20 (ADAM metallopeptidase domain 20) | 1
0.125 | REG4 (regenerating family member 4) | 1
-0.146 | SCN4A (sodium voltage-gated channel alpha subunit 4) | 1
-0.664 | FKBP9 (FKBP prolyl isomerase 9) | 1
-0.428 | LGALS3 (galectin 3) | 1
-0.152 | LGALS3 (galectin 3) | 2
0.817 | RGS2 (regulator of G protein signaling 2) | 1
0.544 | HMGN5 (high mobility group nucleosome binding domain 5) | 1
0.649 | CXCL1 (C-X-C motif chemokine ligand 1) | 1
-0.241 | AKR1E2 (aldo-keto reductase family 1 member E2) | 1
-0.412 | FLRT2 (fibronectin leucine rich transmembrane protein 2) | 1
0.702 | MMRN2 (multimerin 2) | 1
-0.855 | EGFL7 (EGF like domain multiple 7) | 1
-0.304 | EIF3C (eukaryotic translation initiation factor 3 subunit C) | 1
-0.626 | MIA2 (MIA SH3 domain ER export factor 2) | 1
0.0287 | RMND5A (required for meiotic nuclear division 5 homolog A) | 1
0.302 | DCTN3 (dynactin subunit 3) | 1
-0.26 | WIZ (WIZ zinc finger) | 1
-0.136 | HPN (hepsin) | 1
-0.343 | ABCC5 (ATP binding cassette subfamily C member 5) | 1
-0.436 | SNRPA1 (small nuclear ribonucleoprotein polypeptide A') | 1
-0.687 | TEX28 (testis expressed 28) | 1
0.645 | PLA2G1B (phospholipase A2 group IB) | 1
0.0423 | IRS2 (insulin receptor substrate 2) | 1
-0.0945 | WWP2 (WW domain containing E3 ubiquitin protein ligase 2) | 1
0.611 | TARBP2 (TARBP2 subunit of RISC loading complex) | 1
-0.0212 | MASTL (microtubule associated serine/threonine kinase like) | 1
0.143 | MAGEH1 (MAGE family member H1) | 1
0.199 | E2F6 (E2F transcription factor 6) | 1
0.0891 | LMBR1L (limb development membrane protein 1 like) | 1
-0.766 | POU2F3 (POU class 2 homeobox 3) | 1
-0.376 | GPC1 (glypican 1) | 1
-0.326 | ZNF274 (zinc finger protein 274) | 1
0.144 | SLC45A4 | 1
0.58 | SLC38A1 | 1
-0.149 | COMMD4 (COMM domain containing 4) | 1
0.885 | ZNF395 (zinc finger protein 395) | 1
-0.0316 | DESI1 (desumoylating isopeptidase 1) | 1
0.17 | THBS3 (thrombospondin 3) | 1
0.73 | CSTF3 (cleavage stimulation factor subunit 3) | 1
-0.645 | KRT1 (keratin 1) | 1
0.0306 | FOXF2 (forkhead box F2) | 1
-0.367 | PHF11 (PHD finger protein 11) | 1
-0.532 | FXYD6 (FXYD domain containing ion transport regulator 6) | 1
0.419 | IAPP (islet amyloid polypeptide) | 1
0.262 | MYH10 (myosin heavy chain 10) | 1
0.0154 | AMPH (amphiphysin) | 1
0.175 | PCDHA8 (protocadherin alpha 8) | 1
0.225 | PDE3A (phosphodiesterase 3A) | 1
-0.0962 | ATP5F1B (ATP synthase F1 subunit beta) | 1

An excerpt taken from the entries so far:
mean correlation with KSR1 profile | gene | pool no.
0.125 | REG4 (regenerating family member 4) | 1
-0.146 | SCN4A (sodium voltage-gated channel alpha subunit 4) | 1
-0.664 | FKBP9 (FKBP prolyl isomerase 9) | 1
-0.428 | LGALS3 (galectin 3) | 1
-0.152 | LGALS3 (galectin 3) | 2
0.817 | RGS2 (regulator of G protein signaling 2) | 1
